Reference: PubChem BioAssay AID1259254 (NCATS, 2017)
Screen: 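Finding genes that stop cells copying their DNA twice in one cycle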 (primary screen). Cell system: human HCT116 colorectal cancer cells. Reagent: single siRNA against human genes. Duration: 3 days. Measured: 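Nuclei stained with Hoechst and imaged; cell-cycle phase assigned by DNA content; G2 share scaled per plate, non-targeting siRNA 0%, GMNN siRNA 100%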. Scale: G2 robust z-score and G2 cells, % of GMNN control: higher = more G2 cells, more excess DNA replication; raw share of cells in G2: higher = larger share of cells with G2 DNA content. Hit rule: 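Active siRNAs have a G2 robust z of 5 or more median absolute deviations over the median, which in these data means about 38% or higher of GMNN control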.
In all, the deposit lists about 59,000 reagents; shown is a part drawn at random. About 1,550 of all reagents (2.6%) were called active. 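G2 share is only a proxy for re-replication; each gene was hit by three separate siRNAs, and active genes were retested.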 Raw values vary from plate to plate and are shown uncorrected. Reagents against one gene are numbered here. The record does not give: the amount of reagent.

gene,siRNA no.,G2 robust z-score,"G2 cells, % of GMNN control",raw share of cells in G2 (%),call
B4GAT1,1,-1.17,-5.27,3.41,inactive
B4GAT1,2,6.83,51,20.3,active
B4GAT1,3,-0.463,-0.288,6.36,inactive
MYLK,1,-0.39,0.222,5.68,inactive
MYLK,2,-0.897,-3.34,4.28,inactive
MYLK,3,-0.616,-1.36,3.54,inactive
EMSY,1,-0.647,-1.59,3.72,inactive
EMSY,2,0.354,5.46,7.07,inactive
EMSY,3,3.79,29.6,12.4,inactive
SERTAD4,1,0.941,9.59,8.13,inactive
SERTAD4,2,0.546,6.81,7.71,inactive
SERTAD4,3,0.0366,3.22,4.05,inactive
TBCC,1,-0.384,0.263,5.25,inactive
TBCC,2,0.121,3.82,5.41,inactive
TBCC,3,-0.431,-0.0681,3.32,inactive
TXNDC12,1,-0.435,-0.0954,5.91,inactive
TXNDC12,2,1.1,10.7,7.9,inactive
TXNDC12,3,-0.432,-0.0736,4.22,inactive
SLC16A2,1,-1.03,-4.28,4.24,inactive
SLC16A2,2,-1.64,-8.58,1.61,inactive
SLC16A2,3,-0.651,-1.61,3.42,inactive
FAM110D,1,-0.417,0.0319,4.46,inactive
FAM110D,2,-0.945,-3.68,2.69,inactive
FAM110D,3,-0.374,0.333,2.47,inactive

8 entries from above, showing only “G2 robust z-score”.
EMSY #3 = 3.79
SERTAD4 #1 = 0.941
SERTAD4 #2 = 0.546
SERTAD4 #3 = 0.0366
TBCC #1 = -0.384
TBCC #2 = 0.121
TBCC #3 = -0.431
TXNDC12 #1 = -0.435

More results follow:
gene,siRNA no.,G2 robust z-score,"G2 cells, % of GMNN control",raw share of cells in G2 (%),call
TSPAN11,1,0.498,6.47,6.12,inactive
TSPAN11,2,-0.669,-1.74,2.76,inactive
TSPAN11,3,-0.747,-2.29,2.34,inactive
RFK,1,2.68,21.8,10.7,inactive
RFK,2,-0.645,-1.57,5.1,inactive
RFK,3,-0.104,2.24,6.01,inactive
SRRM3,1,-0.185,1.67,4.18,inactive
SRRM3,2,-0.759,-2.37,2.32,inactive
SRRM3,3,2.4,19.9,9.53,inactive
TIA1,1,1.52,13.6,10.3,inactive
TIA1,2,-0.564,-1,4.2,inactive
TIA1,3,1.99,17,9.58,inactive
FES,1,0.372,5.58,7.45,inactive
FES,2,2.35,19.5,12,inactive
FES,3,-0.377,0.312,4.13,inactive
FSHB,1,-1.05,-4.45,3.22,inactive
FSHB,2,0.683,7.77,6.93,inactive
FSHB,3,-0.425,-0.0227,3.51,inactive
ADAMTSL1,1,0.123,3.83,4.41,inactive
ADAMTSL1,2,0.792,8.54,6.13,inactive
ADAMTSL1,3,-0.587,-1.16,3.12,inactive
ADAMTSL1,4,-0.516,-0.661,3.34,inactive
ADAMTSL1,5,2.24,18.7,9.55,inactive
ADAMTSL1,6,-0.173,1.75,3.75,inactive
HIPK1,1,-0.657,-1.66,5.07,inactive
HIPK1,2,0.139,3.95,6.63,inactive
HIPK1,3,-0.692,-1.9,3.07,inactive
GABRA5,1,0.202,4.39,6.89,inactive
GABRA5,2,-0.773,-2.47,3.95,inactive
GABRA5,3,-0.643,-1.56,3.77,inactive
PKD1,1,-0.933,-3.6,3.63,inactive
PKD1,2,-0.474,-0.365,4.19,inactive
PKD1,3,-0.515,-0.656,3.3,inactive
ARL4D,1,-0.309,0.793,5.36,inactive
ARL4D,2,-0.92,-3.5,3.53,inactive
ARL4D,3,-0.617,-1.37,3.48,inactive
HYAL2,1,-0.579,-1.11,4.31,inactive
HYAL2,2,3.53,27.8,15,inactive
HYAL2,3,3.15,25.1,16,inactive
MMEL1,1,-0.411,0.0749,5.63,inactive
MMEL1,2,0.614,7.29,6.87,inactive
MMEL1,3,-1.42,-6.99,1.66,inactive
TRMT61B,1,-0.707,-2.01,3.75,inactive
TRMT61B,2,0.775,8.42,7.63,inactive
TRMT61B,3,-0.437,-0.108,3.1,inactive
